Drawing on paper PMC7819943, “Rice protein-binding microarrays: a tool to detect cis-acting elements near promoter regions in rice”, this text covers binding signal for 54 sequences.

This is one part of the list.

For the assay, the target named is T1, OsSMF1 (Oryza sativa, UniProt Q6ZLB0 1-436).
T1 sequence: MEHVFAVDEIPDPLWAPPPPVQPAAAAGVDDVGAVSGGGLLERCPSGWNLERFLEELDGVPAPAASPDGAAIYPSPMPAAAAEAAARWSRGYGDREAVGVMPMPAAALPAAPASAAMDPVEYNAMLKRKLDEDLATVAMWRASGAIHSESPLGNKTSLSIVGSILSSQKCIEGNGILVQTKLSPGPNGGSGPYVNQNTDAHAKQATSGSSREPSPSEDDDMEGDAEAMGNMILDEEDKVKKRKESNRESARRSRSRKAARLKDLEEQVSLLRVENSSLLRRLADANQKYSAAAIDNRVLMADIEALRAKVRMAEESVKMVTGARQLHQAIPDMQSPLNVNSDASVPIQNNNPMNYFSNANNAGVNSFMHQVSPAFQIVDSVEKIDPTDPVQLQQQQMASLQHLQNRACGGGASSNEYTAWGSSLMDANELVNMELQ
The experiment in a line: protein-binding microarray (RPBM); PBS, 2% BSA, 51.3 ng/ul salmon testes DNA, 50 uM zinc acetate, 200 nM TF, 25 C, 1 h; high values mean tight binding. As to conditions: protein: recombinant; tags: N-terminal polyhistidine and DsRed monomer fusion (pET32a); chain copies: 2; label: CyDye5-dUTP incorporated in the synthesized complementary strand; 3' TTTTT single-stranded linker to array surface; dsDNA, one strand shown. In outline: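 Transcription factors were made in E. coli BL21-CodonPlus as N-terminal fusions to a polyhistidine tag and DsRed, then purified on Ni–NTA. After primer extension with Cy5-dUTP and blocking with 2% BSA, a custom Agilent array was exposed for 1 h at 25 °C to 200 nM protein in PBS, 2% BSA, salmon testes DNA and 50 µM zinc acetate. Washed arrays were scanned on an Axon 4000B, and the binding signal is per-feature fluorescence intensity in arbitrary units.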
Regarding “CGCCGCTGCCGCCAAACCGTCGGTGGAGAAGGCCTACCGGCGGAGTCACCTAGTGCAG”, the binding signal is 59200 fluorescence intensity (a.u.).

Regarding “GGATGCCATGACACCTAGGCATAGAATAGGCATAGAAAATCGGAGTCACCTAGTGCAG”, the binding signal was 3750 fluorescence intensity (a.u.).

Turning to “CATCATCTCCTCCTATATCAGTTGTCATCACCCGGCCTGTCGGAGTCACCTAGTGCAG”, the binding signal was 4710 fluorescence intensity (a.u.).

As to “ATCCTACTTTCCTATTGCTGTCATATGTGTCACGGCTGAACGGAGTCACCTAGTGCAG”, the binding signal was 4920 fluorescence intensity (a.u.).

On to “GATAAGGGAATTAATATATACAACGTGTCGAAATTTTGAGCGGAGTCACCTAGTGCAG”, for which the binding signal is 3140 fluorescence intensity (a.u.).

With “CCAATATGAGCCCATTAGGCCCATCTGGCCCACAGCTCATCGGAGTCACCTAGTGCAG”, the binding signal is 3500 fluorescence intensity (a.u.).

Take “TCGTACGCTGGTCGGACATACCAGTCGTACGTATAGTATTCGGAGTCACCTAGTGCAG”: the binding signal is 7790 fluorescence intensity (a.u.).

In the case of “TCATGGCGACACTGCTTCGAACGTGGCGACGGTCAGTTCTCGGAGTCACCTAGTGCAG”, the binding signal is 5080 fluorescence intensity (a.u.).

Regarding “TCACATGCATAATTAGAATAATTGAAAGGCCACAGATGGCCGGAGTCACCTAGTGCAG”, the binding signal is 3370 fluorescence intensity (a.u.).

Consider “TCGGCGGCGGCACACGCGTCGCCGCGCGGTTCGTCCGCTCCGGAGTCACCTAGTGCAG”, for which the binding signal is 5120 fluorescence intensity (a.u.).

Turning to “AGCCGTCCGTCCCGTGCTCTCACGTCATCAGGCATCCACCCGGAGTCACCTAGTGCAG”, the binding signal is 10600 fluorescence intensity (a.u.).

For the sequence “GATACAATCGTATTGTCTGACGTCGCCATTGTGTAGATTACGGAGTCACCTAGTGCAG”, the binding signal is 4840 fluorescence intensity (a.u.).

Regarding “TACAAAGCCTCACTACCTAGCTTCTTCTCTCTAGTCAAGACGGAGTCACCTAGTGCAG”, the binding signal was 5540 fluorescence intensity (a.u.).

Turning to “CTGCGGCAATCACTGACTCAGGTTGGTCCAGTTCATGGTTCGGAGTCACCTAGTGCAG”, the binding signal was 5000 fluorescence intensity (a.u.).

“TACAAAACAGAAGGTGACACTGGTGGTTCCTTGGCTCTGTCGGAGTCACCTAGTGCAG”: the binding signal was 3560 fluorescence intensity (a.u.).

For the sequence “CATCCCATCCATCCATCTTTGCTGATTCACCCCACAAAATCGGAGTCACCTAGTGCAG”, the binding signal is 6310 fluorescence intensity (a.u.).

“CTAGTAGTGACACATCACCCAATTTGTGTGCATACCGCATCGGAGTCACCTAGTGCAG”: the binding signal was 14100 fluorescence intensity (a.u.).

“GCCAAACCCCTCCACGCGTCACATAAACCAACACATCTCCCGGAGTCACCTAGTGCAG”: the binding signal was 8630 fluorescence intensity (a.u.).

In the case of “TTCAGTCTTGTAGCAACGTCAACCGGTGCTGTCTTACAAGCGGAGTCACCTAGTGCAG”, the binding signal is 4840 fluorescence intensity (a.u.).

“ACATGCAAAGATGCCACATCATCATCCACTATCACTAATTCGGAGTCACCTAGTGCAG”: the binding signal is 17600 fluorescence intensity (a.u.).

In the case of “TTTCTACAAGTGGGTTGGACCACATGCATTGACTAATAATCGGAGTCACCTAGTGCAG”, the binding signal was 3140 fluorescence intensity (a.u.).

In the case of “AGGTTGAAGCTCATGTTAGAATTGTATTAAAATTCTTATGCGGAGTCACCTAGTGCAG”, the binding signal is 5810 fluorescence intensity (a.u.).

As to “GTGGAGACTAAATCCAACACATCTCGCTTGTCAGCGTCTTCGGAGTCACCTAGTGCAG”, the binding signal is 3140 fluorescence intensity (a.u.).

“CGGGCGGCATCGACACGTGTAGTTTTGCGAATGGTCAGCGCGGAGTCACCTAGTGCAG”: the binding signal was 11900 fluorescence intensity (a.u.).

For the sequence “GCCTGGCACATGCATGATCCTTAACTTCCAAGTCAGATTGCGGAGTCACCTAGTGCAG”, the binding signal was 4220 fluorescence intensity (a.u.).

As to “AAGTTGGTTTAAAATCTCAATAAATTCATTTCCAAGTCTACGGAGTCACCTAGTGCAG”, the binding signal is 5380 fluorescence intensity (a.u.).

For the sequence “CCTTCCCACCGCCGCATCCTCGATCTGCGTGCTGCCACCGCGGAGTCACCTAGTGCAG”, the binding signal is 3500 fluorescence intensity (a.u.).

As to “ATCTAGACCATTATTCTTTTAGTAATTTCAAATTTGTATTCGGAGTCACCTAGTGCAG”, the binding signal was 4970 fluorescence intensity (a.u.).

Regarding “TAGTAATCCAGGTATTTTAGTCATTTTGCAGCATCACTCACGGAGTCACCTAGTGCAG”, the binding signal is 3400 fluorescence intensity (a.u.).

Turning to “ATGAATCTGACAGGTGCTTCCCACGTGTAGATGAGGAAGACGGAGTCACCTAGTGCAG”, the binding signal was 4590 fluorescence intensity (a.u.).

As for “CATTCATGTTTGACAGCAGCAGGCTTTGCCTCCTCACTCCCGGAGTCACCTAGTGCAG”, the binding signal is 3430 fluorescence intensity (a.u.).

“AGCCCGGCCCATTATCATCACACCAACTCATCCACCCCGTCGGAGTCACCTAGTGCAG”: the binding signal is 17800 fluorescence intensity (a.u.).

Regarding “GTCGAGGAGGAGGCGGTGGTGGTGGTGGTGGCGCGGCCGCCGGAGTCACCTAGTGCAG”, the binding signal was 4080 fluorescence intensity (a.u.).

For “AGGAGCTTCCCGTCCACGTGCGCGGAACGCACGCTACCGCCGGAGTCACCTAGTGCAG”, the binding signal was 8250 fluorescence intensity (a.u.).

Turning to “ACCCGCCCTTGTTGCGTTGCGTCGGCGTATATGTACGCACCGGAGTCACCTAGTGCAG”, the binding signal was 3430 fluorescence intensity (a.u.).

As to “GAGGGGATGACGGTGGTCTCGGCAGCGGATGACGGCGGCGCGGAGTCACCTAGTGCAG”, the binding signal is 4490 fluorescence intensity (a.u.).

Turning to “CCGCCGCCGCCTTGCTCTCCTTCCCACCTGTTGGCTGGCGCGGAGTCACCTAGTGCAG”, the binding signal was 3470 fluorescence intensity (a.u.).

Turning to “GAAGAGTGATGAGTGATGAGAATTGAGATCCCAATCCTGACGGAGTCACCTAGTGCAG”, the binding signal was 4290 fluorescence intensity (a.u.).

As to “ACTCCCGGCCGCTGCCCGGTGACTCGCCGCCGGCGACCGCCGGAGTCACCTAGTGCAG”, the binding signal is 24700 fluorescence intensity (a.u.).

“ATCATCATCATCATCGTCGTTGTCGTCATCATCACTATTACGGAGTCACCTAGTGCAG”: the binding signal is 6220 fluorescence intensity (a.u.).

Regarding “CTCCGCAGTCGTAGGCCCACGCGAACCATTCCGTGTGCAACGGAGTCACCTAGTGCAG”, the binding signal is 52000 fluorescence intensity (a.u.).

On to “ATCGGATACGGACACGTATCGGACACGGCCGGATACGTGTCGGAGTCACCTAGTGCAG”, for which the binding signal is 5470 fluorescence intensity (a.u.).

For the sequence “ACGGCACGGCCCGCTACAGGAGCCGTGCCTAACGGGCCGTCGGAGTCACCTAGTGCAG”, the binding signal was 3740 fluorescence intensity (a.u.).

“GGATTTGGCTTAGCGTGAAGGAGCTGGCATGCATGCATCGCGGAGTCACCTAGTGCAG”: the binding signal is 3370 fluorescence intensity (a.u.).

“AGTCCCACTCATCTTTATATAGTATAAGGTGCTGAGGTGTCGGAGTCACCTAGTGCAG”: the binding signal is 6990 fluorescence intensity (a.u.).

Take “GGCGTTATAATAAGGATGTGTATTGCTACCCTAAATCAGTCGGAGTCACCTAGTGCAG”: the binding signal was 3250 fluorescence intensity (a.u.).

With “AGACTGGTTTACGCTCCCCGAATGGTCGCCTATTCAGGTGCGGAGTCACCTAGTGCAG”, the binding signal is 26000 fluorescence intensity (a.u.).

On to “CCCACGGTGCGGCGCCCCGCCGTACGTCGCCGCGTGCGCGCGGAGTCACCTAGTGCAG”, for which the binding signal was 3300 fluorescence intensity (a.u.).

Consider “GCGACGCCTGCGTCGAGCACCACCTGCAGCGTGGCCAGGGCGGAGTCACCTAGTGCAG”, for which the binding signal is 3450 fluorescence intensity (a.u.).

Regarding “CGGCTTGACGAGGATGATGCAGCGCTGGAACATGGCGGCCCGGAGTCACCTAGTGCAG”, the binding signal is 4150 fluorescence intensity (a.u.).

Consider “CTTCAATGATTTTGTCGTCATCACCAATGCGGATCATATGCGGAGTCACCTAGTGCAG”, for which the binding signal was 4920 fluorescence intensity (a.u.).

“TTCCCACCCGCACTCCACTTGCGCGCCACGCCATGGATGACGGAGTCACCTAGTGCAG”: the binding signal was 5490 fluorescence intensity (a.u.).

For “CCCCGCGCGCACCCACCCCACCGAAGGGGAGAGGCAGGCACGGAGTCACCTAGTGCAG”, the binding signal was 24600 fluorescence intensity (a.u.).

On to “GCTTCACGTGGACCGCGGCCATCATCATCAGGCTGCAGCTCGGAGTCACCTAGTGCAG”, for which the binding signal was 3730 fluorescence intensity (a.u.).
